Reference: article PMC8449257

Amino acid sequences for entries named in this document (tags omitted). A change or cut given only in a name is not applied to a line headed by its entry.
UniProt Q27874: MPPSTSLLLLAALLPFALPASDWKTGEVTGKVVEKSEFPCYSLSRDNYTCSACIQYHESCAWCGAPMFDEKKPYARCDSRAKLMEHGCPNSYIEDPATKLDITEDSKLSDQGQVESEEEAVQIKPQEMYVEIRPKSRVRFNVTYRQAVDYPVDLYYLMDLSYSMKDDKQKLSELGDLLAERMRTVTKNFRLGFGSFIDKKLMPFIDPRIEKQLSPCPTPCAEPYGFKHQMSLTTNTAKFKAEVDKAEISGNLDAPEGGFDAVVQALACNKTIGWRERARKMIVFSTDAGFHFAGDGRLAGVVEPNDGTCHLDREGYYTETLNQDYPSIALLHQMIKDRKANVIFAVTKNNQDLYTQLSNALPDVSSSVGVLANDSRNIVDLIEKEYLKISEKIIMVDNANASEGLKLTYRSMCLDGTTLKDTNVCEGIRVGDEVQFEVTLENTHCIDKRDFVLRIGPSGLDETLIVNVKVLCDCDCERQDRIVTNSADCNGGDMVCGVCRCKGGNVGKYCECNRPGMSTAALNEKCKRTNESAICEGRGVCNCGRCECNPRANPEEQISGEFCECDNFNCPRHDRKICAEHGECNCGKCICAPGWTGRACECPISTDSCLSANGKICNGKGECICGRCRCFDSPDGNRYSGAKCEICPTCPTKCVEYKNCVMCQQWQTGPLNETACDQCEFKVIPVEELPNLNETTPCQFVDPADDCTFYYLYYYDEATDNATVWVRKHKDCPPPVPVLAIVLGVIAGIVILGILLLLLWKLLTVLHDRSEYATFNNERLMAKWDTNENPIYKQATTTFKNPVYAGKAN

Biological target: PAT-3 (beta-integrin) (C. elegans) (UniProt Q27874)
Test: two-hybrid; yeast PJ69-4A; UNC-112 forms as prey (pGAD-C3 or pACT-Q), PAT-4 or UNC-112C as bait (pGBDU); read-out is growth on His- (2 mM 3-amino-1,2,4-triazole in the screen) and Ade- plates

B1: UNC-112 (kindlin), wild type (protein, UniProt Q18685 1-720)
chain: MAHLVEGTSIIDGKWQLPILVTDLNIQRSISVLGNLNVGGLMLELVSECDVERDWSDHALWWPEKRRWLQHTRSTLDQNGITAETQLEFTPMHKEARIQLPDMQMIDARVDFSVNSFKATKKLCRDLGIRYSEELSLKRYIPPEDLRRGTSDADNMNGPLSMRPGEESVGPMTLRKAAPIFASQSNLDMRRRGQSPALSQSGHIFNAHEMGTLPRHGTLPRGVSPSPGAYNDTMRRTPIMPSISFSEGLENEQFDDALIHSPRLAPSRDTPVFRPQNYVEKAAINRGWLDSSRSLMEQGIFEGDIILLRFKFMNFFDLNPKYDPVRINQLYEQAKWSILLDEFDHTEEEATLFAALQLQATLQRDSPEPEENNKDDVDILLDELEQNLDAAALNRRSDLTQVPELADYLKYMKPKKLAAFKGFKRAFFSFRDLYLSYHQSSSDVNSAPLGHFSLKGCEVSQDVSVGQQKYHIKLLLPTAEGMIDFILKCDSEHQYARWMAACRLASRGKSMADSSYQQEVESIKNLLKMQSGNGNENGNSNTASRKAAAVKLPNDFNVDEYISSKYVRRARSKQQIQQRVSDAHGNVRQLTATEAKLQYIRAWQALPEHGIHYFIVRFRNARKAELVAVAVNRLAKLNMDNGESLKTWRFANMKKWHVNWEIRHLKIQFEDEDIEFKPLSADCKVVHEFIGGYIFLSMRSKEHSQNLDEELFHKLTGGWA
binding: binds

B2: UNC-112 E302G (full length) (protein, UniProt Q18685 1-720)
chain: MAHLVEGTSIIDGKWQLPILVTDLNIQRSISVLGNLNVGGLMLELVSECDVERDWSDHALWWPEKRRWLQHTRSTLDQNGITAETQLEFTPMHKEARIQLPDMQMIDARVDFSVNSFKATKKLCRDLGIRYSEELSLKRYIPPEDLRRGTSDADNMNGPLSMRPGEESVGPMTLRKAAPIFASQSNLDMRRRGQSPALSQSGHIFNAHEMGTLPRHGTLPRGVSPSPGAYNDTMRRTPIMPSISFSEGLENEQFDDALIHSPRLAPSRDTPVFRPQNYVEKAAINRGWLDSSRSLMEQGIFGGDIILLRFKFMNFFDLNPKYDPVRINQLYEQAKWSILLDEFDHTEEEATLFAALQLQATLQRDSPEPEENNKDDVDILLDELEQNLDAAALNRRSDLTQVPELADYLKYMKPKKLAAFKGFKRAFFSFRDLYLSYHQSSSDVNSAPLGHFSLKGCEVSQDVSVGQQKYHIKLLLPTAEGMIDFILKCDSEHQYARWMAACRLASRGKSMADSSYQQEVESIKNLLKMQSGNGNENGNSNTASRKAAAVKLPNDFNVDEYISSKYVRRARSKQQIQQRVSDAHGNVRQLTATEAKLQYIRAWQALPEHGIHYFIVRFRNARKAELVAVAVNRLAKLNMDNGESLKTWRFANMKKWHVNWEIRHLKIQFEDEDIEFKPLSADCKVVHEFIGGYIFLSMRSKEHSQNLDEELFHKLTGGWA
binding: binds

Results are given in words; binding and its absence hold for the method and conditions named. Binding can be weak; no strength is given.
